Data from patent US20260184815A1.
Results are given in words; binding and its absence hold for the method and conditions named. Some binding calls cover weakened binding; strength is not graded here.

The chains behind the UniProt entries cited, without tags or fusion partners. Where a name states a change or a piece, a line headed by the entry shows the natural chain unless it says otherwise.
UniProt P03952: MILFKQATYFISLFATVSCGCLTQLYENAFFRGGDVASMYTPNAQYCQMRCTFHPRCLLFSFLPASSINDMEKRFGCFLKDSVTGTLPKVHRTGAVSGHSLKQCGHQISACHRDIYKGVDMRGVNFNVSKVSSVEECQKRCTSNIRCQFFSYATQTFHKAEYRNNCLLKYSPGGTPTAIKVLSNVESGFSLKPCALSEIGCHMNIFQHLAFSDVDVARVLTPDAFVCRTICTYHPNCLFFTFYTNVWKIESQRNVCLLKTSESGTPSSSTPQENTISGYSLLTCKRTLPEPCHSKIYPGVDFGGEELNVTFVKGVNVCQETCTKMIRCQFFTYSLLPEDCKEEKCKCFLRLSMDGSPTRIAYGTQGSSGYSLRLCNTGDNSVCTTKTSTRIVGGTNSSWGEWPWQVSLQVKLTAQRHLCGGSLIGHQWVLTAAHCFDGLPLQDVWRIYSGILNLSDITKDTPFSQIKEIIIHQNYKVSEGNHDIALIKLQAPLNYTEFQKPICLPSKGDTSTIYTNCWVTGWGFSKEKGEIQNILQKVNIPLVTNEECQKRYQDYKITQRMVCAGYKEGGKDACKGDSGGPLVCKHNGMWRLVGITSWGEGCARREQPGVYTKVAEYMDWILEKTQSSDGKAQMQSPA

Tests used:
[1] = molecular target: human plasma kallikrein (human) (UniProt P03952); assay: complex formed for the BIACORE SPR competition
[2] = molecular target: human plasma kallikrein (human) (UniProt P03952); assay: steady state enzyme kinetics, IgG

Row | binding [1] | binding [2] | Binder
1 | binds |  | EPI-KAL2 (designed binder) EAMHSFCAFKADDGPCRAAHPRWFFNIFTRQCEEFSYGGCGGNQNRFESLEECKKMCTRD
2 |  | binds | X67-C03 (antibody, human IgG1, V domains shown) VH: EVQLLESGGGLVQPGGSLRLSCAASGFTFSAYSMIWVRQAPGKGLEWVSYIRPSGGRTTYADSVKGRFTISRDNSKNTLYLQMNSLRAEDTAVYYCARGGLLLWMRELKSNYFDYWGQGTLVTVSS VL: DIQMTQSPSSLSAFVGDRVTITCRASQPIDNYLNWYHQKPGKAPKLLIYAASRLQSGVPSRLSGSGFGTDFTLTISSLQPEDFGNYYCQQSYTVPYTFGGGTKVEIR
